According to publication PMC3349753:
No constants are given. Whether binding was seen depends on the method and setting. Binding seen in cells or lysates may run through a third protein. Some entries that bind do so weakly or less than the wild type. Tags and fused reporters may be left off the sequences shown.

Sequences of proteins named here, by UniProt entry; tags and fusion partners are left off.
UniProt P60953: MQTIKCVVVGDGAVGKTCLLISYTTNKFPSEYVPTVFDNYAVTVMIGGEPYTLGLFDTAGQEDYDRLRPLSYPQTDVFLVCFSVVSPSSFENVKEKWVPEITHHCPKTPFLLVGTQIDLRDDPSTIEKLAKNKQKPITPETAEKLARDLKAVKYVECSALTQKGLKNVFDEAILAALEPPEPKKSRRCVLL

Key:
Flag-tagged Cdc42 = Flag-tagged Cdc42 (UniProt P60953); test: co-IP; NPC-TW01 cells co-expressing Flag-tagged Cdc42 and Myc-tagged full-length or truncated FGD4; lysates precipitated with anti-Flag affinity matrix; blot with anti-Flag and anti-Myc
[1] = target: Myc-tagged full-length FGD4 (FYVE, RhoGEF and PH domain-containing 4) (human) (UniProt Q96M96); test: co-IP; NPC-TW01 cells co-expressing Flag-FGD4 and Myc-FGD4 or its truncated forms; lysates precipitated with anti-Flag affinity matrix

B1: Myc-tagged full-length FGD4 (FYVE, RhoGEF and PH domain-containing 4) (protein, UniProt Q96M96 1-766)
chain: MEEIKPASASCVSKEKPSKVSDLISRFEGGSSLSNYSDLKKESAVNLNAPRTPGRHGLTTTPQQKLLSQHLPQRQGNDTDKTQGAQTCVANGVMAAQNQMECEEEKAATLSSDTSIQASEPLLDTHIVNGERDETATAPASPTTDSCDGNASDSSYRTPGIGPVLPLEERGAETETKVQERENGESPLELEQLDQHHEMKETNEQKLHKIANELLLTERAYVNRLDLLDQVFYCKLLEEANRGSFPAEMVNKIFSNISSINAFHSKFLLPELEKRMQEWETTPRIGDILQKLAPFLKMYGEYVKGFDNAMELVKNMTERIPQFKSVVEEIQKQKICGSLTLQHHMLEPVQRIPRYEMLLKDYLRKLPPDSLDWNDAKKSLEIISTAASHSNSAIRKMENLKKLLEIYEMLGEEEDIVNPSNELIKEGQILKLAARNTSAQERYLFLFNNMLLYCVPKFSLVGSKFTVRTRVGIDGMKIVETQNEEYPHTFQVSGKERTLELQASSAQDKEEWIKALQETIDAFHQRHETFRNAIAKDNDIHSEVSTAELGKRAPRWIRDNEVTMCMKCKEPFNALTRRRHHCRACGYVVCWKCSDYKAQLEYDGGKLSKVCKDCYQIISGFTDSEEKKRKGILEIESAEVSGNSVVCSFLQYMEKSKPWQKAWCVIPKQDPLVLYMYGAPQDVRAQATIPLLGYVVDEMPRSADLPHSFKLTQSKSVHSFAADSEELKQKWLKVILLAVTGETPGGPNEHPATLDDHPEPKKKSEC
Q: Which results are given for B1?
A: binding (Flag-tagged Cdc42): binds; binding [1]: binds
